Values from PubChem BioAssay AID1159578 (Peter MacCallum Cancer Centre, 2015).
Purpose: 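Genome-wide hunt for genes controlling movement of lymphatic endothelial cells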 (primary screen). System: human lymphatic endothelial cells. Reagent: siRNA pool against human genes, 40 nM. Timing: 48 h after transfection. Read-out: 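Cells stained with dye and imaged after a scratch; covered wound area and nuclei counted, duplicates averaged, migration set against mock wells and turned into a robust z-score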. Direction: migration robust z-score: higher = faster migration into the scratch; nuclei per well: higher = more cells in the well. Rule for the call: 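Migration changed when robust z exceeds 2 or falls below -2 and mean nuclei number is at least 3300; otherwise not called changed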. Meaning of the calls: active = migration changed; inactive = no migration change, or too few cells.
In all, the deposit lists about 18,000 reagents; shown is an unselected part. About 1,030 of all reagents (5.7%) were called active. 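Inactive calls also include pools with fewer than 3300 nuclei, whose migration was not assessed.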 The raw values are shown without normalisation. Entries without a mark were called inactive. Further read-outs or replicates are left out here. No sequences are given here.

ZNF253
- migration robust z-score: 0.1
- nuclei per well, duplicate mean: 5285

UFSP2
- migration robust z-score: -0.42
- nuclei per well, duplicate mean: 6426

SIRPG
- migration robust z-score: -0.01
- nuclei per well, duplicate mean: 6209

WDR88
- migration robust z-score: -0.05
- nuclei per well, duplicate mean: 3728

BTBD17
- migration robust z-score: 0.69
- nuclei per well, duplicate mean: 6252

GATM
- migration robust z-score: 0.18
- nuclei per well, duplicate mean: 6628

MCTS1
- migration robust z-score: -1.19
- nuclei per well, duplicate mean: 5482

CBX7
- migration robust z-score: -0.62
- nuclei per well, duplicate mean: 4964

IL6ST
- migration robust z-score: -0.78
- nuclei per well, duplicate mean: 7139

PC
- migration robust z-score: 0.18
- nuclei per well, duplicate mean: 5197

HLA-C
- migration robust z-score: 0.24
- nuclei per well, duplicate mean: 6045

FBXL12
- migration robust z-score: -1.48
- nuclei per well, duplicate mean: 3165

MEIS3
- migration robust z-score: -0.56
- nuclei per well, duplicate mean: 5942

PRAMEF10
- migration robust z-score: 1.34
- nuclei per well, duplicate mean: 6559

RPS24
- migration robust z-score: -0.43
- nuclei per well, duplicate mean: 4814

ZNF396
- migration robust z-score: 0.45
- nuclei per well, duplicate mean: 6358

EFNA2
- migration robust z-score: 0.88
- nuclei per well, duplicate mean: 4892

MMP19
- migration robust z-score: 0.57
- nuclei per well, duplicate mean: 5788

PLXND1
- migration robust z-score: -1.21
- nuclei per well, duplicate mean: 4158

SCGB1A1
- migration robust z-score: -2.82
- nuclei per well, duplicate mean: 3251

MYF6
- migration robust z-score: -0.36
- nuclei per well, duplicate mean: 6162

CORT
- migration robust z-score: 0.64
- nuclei per well, duplicate mean: 5408

C9orf153
- migration robust z-score: 0.18
- nuclei per well, duplicate mean: 6141

FBXW12
- migration robust z-score: -0.93
- nuclei per well, duplicate mean: 5724

TM9SF3
- migration robust z-score: -0.14
- nuclei per well, duplicate mean: 5966

NPS
- migration robust z-score: 0.84
- nuclei per well, duplicate mean: 6097

TLR7
- migration robust z-score: -0.31
- nuclei per well, duplicate mean: 6487

4 entries from above, reformatted.
MCTS1: migration robust z-score = -1.19; nuclei per well, duplicate mean = 5482
CBX7: migration robust z-score = -0.62; nuclei per well, duplicate mean = 4964
IL6ST: migration robust z-score = -0.78; nuclei per well, duplicate mean = 7139
PC: migration robust z-score = 0.18; nuclei per well, duplicate mean = 5197
